From the supplement of paper PMC10849652
The list shows a part of the results.

Chains of the proteins cited; added tags and fusions are not shown. Lines headed by an entry give the natural chain unless they say otherwise; changes in a name come on top.
UniProt Q9Y248: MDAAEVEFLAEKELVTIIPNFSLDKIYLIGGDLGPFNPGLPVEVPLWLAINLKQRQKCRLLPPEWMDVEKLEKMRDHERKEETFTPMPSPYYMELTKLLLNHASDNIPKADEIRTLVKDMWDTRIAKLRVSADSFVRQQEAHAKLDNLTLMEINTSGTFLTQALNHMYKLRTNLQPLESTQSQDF
UniProt O75223: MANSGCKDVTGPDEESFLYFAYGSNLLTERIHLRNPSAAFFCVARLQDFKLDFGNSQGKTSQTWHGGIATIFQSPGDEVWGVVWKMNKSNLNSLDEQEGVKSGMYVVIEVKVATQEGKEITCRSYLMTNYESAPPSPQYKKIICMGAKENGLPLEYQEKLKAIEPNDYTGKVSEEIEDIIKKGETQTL
UniProt Q9H4A6: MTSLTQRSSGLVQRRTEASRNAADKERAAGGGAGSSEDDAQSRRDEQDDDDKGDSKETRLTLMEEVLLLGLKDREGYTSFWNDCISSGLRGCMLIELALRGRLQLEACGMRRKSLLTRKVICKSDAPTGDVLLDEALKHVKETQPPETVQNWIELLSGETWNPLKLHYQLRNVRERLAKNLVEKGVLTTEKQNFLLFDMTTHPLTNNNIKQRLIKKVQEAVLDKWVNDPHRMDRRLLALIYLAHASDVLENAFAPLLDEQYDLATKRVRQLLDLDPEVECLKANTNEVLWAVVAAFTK
UniProt Q9NPR9: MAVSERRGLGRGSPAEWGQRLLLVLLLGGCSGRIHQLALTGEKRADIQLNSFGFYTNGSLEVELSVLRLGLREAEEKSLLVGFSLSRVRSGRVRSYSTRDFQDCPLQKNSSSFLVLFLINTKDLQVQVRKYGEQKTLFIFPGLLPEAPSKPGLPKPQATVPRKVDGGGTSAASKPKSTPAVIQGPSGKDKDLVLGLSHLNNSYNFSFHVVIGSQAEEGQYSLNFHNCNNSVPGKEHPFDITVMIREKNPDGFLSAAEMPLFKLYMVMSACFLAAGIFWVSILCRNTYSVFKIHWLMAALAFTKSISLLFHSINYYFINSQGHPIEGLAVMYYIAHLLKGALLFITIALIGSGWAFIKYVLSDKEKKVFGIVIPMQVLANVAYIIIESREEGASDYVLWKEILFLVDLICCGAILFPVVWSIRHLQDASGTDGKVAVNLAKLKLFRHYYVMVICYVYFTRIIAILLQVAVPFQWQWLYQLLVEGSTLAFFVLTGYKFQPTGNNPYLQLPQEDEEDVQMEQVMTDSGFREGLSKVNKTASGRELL
UniProt Q9UJJ9: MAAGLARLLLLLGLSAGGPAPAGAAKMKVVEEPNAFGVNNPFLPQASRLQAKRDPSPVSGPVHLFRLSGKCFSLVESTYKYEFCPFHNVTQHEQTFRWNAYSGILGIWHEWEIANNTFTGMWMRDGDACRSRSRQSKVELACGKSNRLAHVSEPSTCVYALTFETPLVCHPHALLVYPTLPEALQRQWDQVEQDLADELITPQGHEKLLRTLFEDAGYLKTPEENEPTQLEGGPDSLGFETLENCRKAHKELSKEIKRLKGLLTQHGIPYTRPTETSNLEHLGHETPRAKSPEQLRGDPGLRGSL
UniProt Q9HCN4, whole entry, looked up: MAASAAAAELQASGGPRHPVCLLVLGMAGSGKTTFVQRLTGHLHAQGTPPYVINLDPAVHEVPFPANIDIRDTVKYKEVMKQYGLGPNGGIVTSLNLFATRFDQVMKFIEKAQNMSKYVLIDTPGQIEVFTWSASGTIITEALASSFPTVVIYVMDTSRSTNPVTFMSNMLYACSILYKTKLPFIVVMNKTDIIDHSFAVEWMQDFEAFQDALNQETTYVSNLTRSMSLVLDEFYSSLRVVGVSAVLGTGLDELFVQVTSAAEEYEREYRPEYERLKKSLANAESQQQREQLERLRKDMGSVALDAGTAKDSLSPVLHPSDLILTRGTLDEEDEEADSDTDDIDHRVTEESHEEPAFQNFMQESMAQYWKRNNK
UniProt O94925: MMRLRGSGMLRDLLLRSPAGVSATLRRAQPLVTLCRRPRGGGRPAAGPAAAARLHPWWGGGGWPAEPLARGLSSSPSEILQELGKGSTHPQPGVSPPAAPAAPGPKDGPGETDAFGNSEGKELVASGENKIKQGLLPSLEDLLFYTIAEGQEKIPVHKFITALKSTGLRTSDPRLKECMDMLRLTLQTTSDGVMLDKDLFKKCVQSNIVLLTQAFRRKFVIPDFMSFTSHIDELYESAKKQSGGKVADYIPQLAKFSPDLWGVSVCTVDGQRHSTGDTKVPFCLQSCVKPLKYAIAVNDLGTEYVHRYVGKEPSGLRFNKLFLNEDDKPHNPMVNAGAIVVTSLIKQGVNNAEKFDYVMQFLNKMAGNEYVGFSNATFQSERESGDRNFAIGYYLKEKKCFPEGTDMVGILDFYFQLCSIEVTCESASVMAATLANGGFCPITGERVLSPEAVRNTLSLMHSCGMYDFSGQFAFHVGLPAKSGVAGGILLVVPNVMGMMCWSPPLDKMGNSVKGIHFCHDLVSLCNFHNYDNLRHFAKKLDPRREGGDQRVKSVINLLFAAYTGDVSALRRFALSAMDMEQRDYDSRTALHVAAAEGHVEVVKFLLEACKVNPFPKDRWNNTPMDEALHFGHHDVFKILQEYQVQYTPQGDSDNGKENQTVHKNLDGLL
UniProt Q86VQ1: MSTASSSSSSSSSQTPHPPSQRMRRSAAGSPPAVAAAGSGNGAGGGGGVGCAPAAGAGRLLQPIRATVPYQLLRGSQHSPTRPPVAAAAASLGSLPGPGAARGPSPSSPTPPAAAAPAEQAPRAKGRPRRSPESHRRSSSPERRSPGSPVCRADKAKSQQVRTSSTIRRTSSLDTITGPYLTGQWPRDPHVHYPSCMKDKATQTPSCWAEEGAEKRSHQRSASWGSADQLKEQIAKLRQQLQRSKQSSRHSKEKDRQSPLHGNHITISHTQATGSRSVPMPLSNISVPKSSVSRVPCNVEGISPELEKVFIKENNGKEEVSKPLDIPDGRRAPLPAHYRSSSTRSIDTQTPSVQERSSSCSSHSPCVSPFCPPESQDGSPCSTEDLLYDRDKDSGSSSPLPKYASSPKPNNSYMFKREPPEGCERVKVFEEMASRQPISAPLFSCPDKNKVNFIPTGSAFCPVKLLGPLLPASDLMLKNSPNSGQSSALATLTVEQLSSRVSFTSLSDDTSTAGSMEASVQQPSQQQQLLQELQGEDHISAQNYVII
UniProt P43304: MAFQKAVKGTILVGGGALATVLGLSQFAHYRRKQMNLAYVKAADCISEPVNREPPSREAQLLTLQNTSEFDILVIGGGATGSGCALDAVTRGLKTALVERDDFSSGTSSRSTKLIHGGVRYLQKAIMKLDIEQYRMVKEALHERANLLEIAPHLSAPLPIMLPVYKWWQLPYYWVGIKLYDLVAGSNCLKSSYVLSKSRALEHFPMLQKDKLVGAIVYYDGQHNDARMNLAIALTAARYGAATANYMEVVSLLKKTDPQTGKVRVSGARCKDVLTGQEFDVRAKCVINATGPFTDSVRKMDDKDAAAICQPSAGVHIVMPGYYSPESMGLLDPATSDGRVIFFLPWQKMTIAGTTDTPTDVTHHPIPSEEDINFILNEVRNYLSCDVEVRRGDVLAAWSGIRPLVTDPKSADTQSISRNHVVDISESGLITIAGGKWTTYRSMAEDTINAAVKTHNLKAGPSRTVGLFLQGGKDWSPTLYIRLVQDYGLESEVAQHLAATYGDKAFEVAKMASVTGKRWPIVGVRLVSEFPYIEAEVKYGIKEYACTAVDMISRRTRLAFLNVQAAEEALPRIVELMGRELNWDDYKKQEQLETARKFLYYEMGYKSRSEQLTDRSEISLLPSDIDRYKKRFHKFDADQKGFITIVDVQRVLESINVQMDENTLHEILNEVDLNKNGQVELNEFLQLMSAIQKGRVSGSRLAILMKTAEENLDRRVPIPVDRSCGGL
UniProt P36959: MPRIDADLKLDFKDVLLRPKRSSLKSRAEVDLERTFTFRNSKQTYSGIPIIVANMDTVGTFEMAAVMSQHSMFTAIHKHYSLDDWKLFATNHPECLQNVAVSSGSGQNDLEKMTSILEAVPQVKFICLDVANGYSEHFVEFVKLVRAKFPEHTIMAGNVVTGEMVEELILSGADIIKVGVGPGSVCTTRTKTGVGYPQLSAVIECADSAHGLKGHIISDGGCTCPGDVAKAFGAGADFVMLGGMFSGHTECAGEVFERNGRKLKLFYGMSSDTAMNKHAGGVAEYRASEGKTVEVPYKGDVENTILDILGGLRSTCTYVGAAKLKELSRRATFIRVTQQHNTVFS
UniProt Q8IVV7: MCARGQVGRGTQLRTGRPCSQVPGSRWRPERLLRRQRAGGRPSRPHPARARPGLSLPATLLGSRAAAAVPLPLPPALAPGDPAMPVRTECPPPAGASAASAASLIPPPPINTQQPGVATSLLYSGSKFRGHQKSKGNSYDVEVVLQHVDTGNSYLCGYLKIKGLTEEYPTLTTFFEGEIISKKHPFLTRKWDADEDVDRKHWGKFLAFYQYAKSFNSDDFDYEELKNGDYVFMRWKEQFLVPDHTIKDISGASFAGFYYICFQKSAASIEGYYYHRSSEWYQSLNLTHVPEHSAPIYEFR
UniProt Q86UL3: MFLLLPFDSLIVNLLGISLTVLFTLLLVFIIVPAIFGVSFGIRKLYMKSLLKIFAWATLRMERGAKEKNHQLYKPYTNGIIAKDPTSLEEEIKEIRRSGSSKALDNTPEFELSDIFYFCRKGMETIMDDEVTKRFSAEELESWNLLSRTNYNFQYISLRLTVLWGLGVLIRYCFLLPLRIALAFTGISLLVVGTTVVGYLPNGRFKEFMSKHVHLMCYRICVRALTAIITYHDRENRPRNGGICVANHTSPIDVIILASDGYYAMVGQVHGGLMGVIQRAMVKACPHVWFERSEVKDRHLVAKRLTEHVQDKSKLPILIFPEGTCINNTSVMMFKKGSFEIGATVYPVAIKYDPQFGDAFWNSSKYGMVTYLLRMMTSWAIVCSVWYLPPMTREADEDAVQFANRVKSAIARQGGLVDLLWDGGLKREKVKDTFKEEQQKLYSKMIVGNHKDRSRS
UniProt Q9HC38: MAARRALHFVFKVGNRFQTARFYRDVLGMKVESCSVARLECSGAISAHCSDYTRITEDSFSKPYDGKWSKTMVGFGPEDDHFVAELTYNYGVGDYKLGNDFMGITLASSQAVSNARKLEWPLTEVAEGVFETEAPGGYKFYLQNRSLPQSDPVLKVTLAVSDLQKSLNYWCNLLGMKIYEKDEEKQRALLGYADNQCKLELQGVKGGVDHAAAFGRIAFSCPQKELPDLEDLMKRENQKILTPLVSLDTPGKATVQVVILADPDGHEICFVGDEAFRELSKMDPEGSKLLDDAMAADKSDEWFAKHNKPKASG
UniProt P15104, whole entry, looked up: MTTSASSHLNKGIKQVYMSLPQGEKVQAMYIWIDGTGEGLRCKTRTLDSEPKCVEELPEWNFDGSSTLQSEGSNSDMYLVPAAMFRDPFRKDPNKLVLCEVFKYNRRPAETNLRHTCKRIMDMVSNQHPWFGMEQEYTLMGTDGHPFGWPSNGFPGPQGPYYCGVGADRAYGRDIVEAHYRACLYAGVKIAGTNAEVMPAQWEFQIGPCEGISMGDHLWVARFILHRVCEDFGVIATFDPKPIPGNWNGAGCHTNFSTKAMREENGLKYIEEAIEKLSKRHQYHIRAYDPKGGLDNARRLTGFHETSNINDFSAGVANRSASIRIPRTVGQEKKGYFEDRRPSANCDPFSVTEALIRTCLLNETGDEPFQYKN
UniProt Q13098: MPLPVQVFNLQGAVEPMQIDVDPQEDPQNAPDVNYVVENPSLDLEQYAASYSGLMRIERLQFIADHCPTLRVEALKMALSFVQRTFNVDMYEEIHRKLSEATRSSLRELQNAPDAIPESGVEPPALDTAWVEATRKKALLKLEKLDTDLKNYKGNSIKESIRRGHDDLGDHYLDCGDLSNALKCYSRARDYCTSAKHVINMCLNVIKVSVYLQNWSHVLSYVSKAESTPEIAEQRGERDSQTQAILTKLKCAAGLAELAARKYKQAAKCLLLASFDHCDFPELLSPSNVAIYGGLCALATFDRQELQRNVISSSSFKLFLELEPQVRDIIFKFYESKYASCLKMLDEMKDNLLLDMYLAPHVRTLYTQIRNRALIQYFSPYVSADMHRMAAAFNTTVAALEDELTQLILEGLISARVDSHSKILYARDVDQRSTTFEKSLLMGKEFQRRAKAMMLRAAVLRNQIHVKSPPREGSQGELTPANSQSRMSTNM
UniProt O14908: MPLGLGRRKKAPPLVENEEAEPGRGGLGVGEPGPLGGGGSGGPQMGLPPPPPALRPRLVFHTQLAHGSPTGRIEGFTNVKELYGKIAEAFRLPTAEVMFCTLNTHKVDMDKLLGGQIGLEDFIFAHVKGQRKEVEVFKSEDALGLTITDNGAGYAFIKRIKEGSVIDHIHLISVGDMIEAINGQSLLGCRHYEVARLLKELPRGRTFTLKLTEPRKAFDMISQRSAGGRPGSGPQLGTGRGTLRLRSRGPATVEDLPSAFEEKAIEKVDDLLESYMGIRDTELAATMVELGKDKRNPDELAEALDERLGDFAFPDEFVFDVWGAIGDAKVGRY
UniProt P63218: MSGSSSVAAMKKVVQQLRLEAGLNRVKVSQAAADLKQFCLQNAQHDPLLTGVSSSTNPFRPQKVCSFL

Key:
Test in all cases: log2 fold change, soluble protein after heating vs DMSO (PISA); higher = thermal stabilisation; K562 lysate, 10 uM; active = over 0.2 and 3.5 SD of the protein, either way, in both replicates (recomputed)
vemurafenib = compound: CCCS(=O)(=O)Nc1ccc(F)c(C(=O)c2c[nH]c3ncc(-c4ccc(Cl)cc4)cc23)c1F [vemurafenib]
Summary of the method: (§1)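 Thermal stability, expressed as log-two fold change relative to solvent controls, is given from duplicates. Crude K562 extract in PBS pH 7.4 with 1 mM MgCl2, at 1 mg/mL protein, was treated with 10 μM compound for 30 min and heated in aliquots for 3 min across 48°C-58°C. After pooling, adjustment to 0.5% NP-40 at 4°C and centrifugation at 21,000xg for 90 min, supernatant protein was measured by TMTpro 16plex LC-MS/MS with channel sums equalised.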

[1] = compound: CCCS(=O)(=O)Nc1ccc(F)c(C(=O)c2c[nH]c3ncc(Cl)cc23)c1F
Summary of the method: as §1

barasertib = compound: CCN(CCCOc1ccc2c(Nc3cc(CC(=O)Nc4cccc(F)c4)[nH]n3)ncnc2c1)CCOP(=O)(O)O [barasertib]
Summary of the method: as §1

[2] = compound: CC[C@@H]1C(=O)N(C)c2cnc(Nc3ccc(C(=O)NC4CCN(C)CC4)cc3OC)nc2N1C1CCCC1
Summary of the method: as §1

volasertib = compound: CC[C@@H]1C(=O)N(C)c2cnc(Nc3ccc(C(=O)N[C@H]4CC[C@H](N5CCN(CC6CC6)CC5)CC4)cc3OC)nc2N1C(C)C [volasertib]
Summary of the method: as §1

[3] = compound: CCn1c(C(=O)N(C2CC2)C2CC2)cc2c3c(ncn3C)c(Nc3cc(C)n(C)n3)nc21
Summary of the method: as §1

[4] = compound: CCn1cc(-c2ccnc3[nH]c(-c4cccc(CN(C)C)c4)cc23)c(-c2ccc(NC(=O)N(C)C)cc2)n1
Summary of the method: as §1

[5] = compound: CN1CCC(CNc2ccc3ncc(-c4cccc(OC(F)(F)F)c4)n3n2)CC1
Summary of the method: as §1

saracatinib = compound: CN1CCN(CCOc2cc(OC3CCOCC3)c3c(Nc4c(Cl)ccc5c4OCO5)ncnc3c2)CC1 [saracatinib]
Summary of the method: as §1

sotrastaurin = compound: CN1CCN(c2nc(C3=C(c4c[nH]c5ccccc45)C(=O)NC3=O)c3ccccc3n2)CC1 [sotrastaurin]
Summary of the method: as §1

Measured: log2 fold change

GINS2 (UniProt Q9Y248)
inactive: vemurafenib -0.104 | [1] 0.008 | barasertib 0.012 | [2] -0.08 | volasertib 0.009 | [3] -0.009 | [4] 0.005 | [5] -0.016 | saracatinib 0.051 | sotrastaurin -0.046

GGCT (UniProt O75223)
inactive: vemurafenib -0.05 | [1] -0.004 | barasertib -0.04 | [2] 0.016 | volasertib 0.051 | [3] -0.026 | [4] 0.026 | [5] 0.018 | saracatinib 0.004 | sotrastaurin -0.027

GPN3 isoform 2 (UniProt Q9UHW5)
inactive: vemurafenib -0.044 | [1] -0.001 | barasertib 0.001 | [2] 0.062 | volasertib -0.046 | [3] -0.027 | [4] -0.107 | [5] 0.099 | saracatinib -0.028 | sotrastaurin 0.046

GOLPH3 (UniProt Q9H4A6)
inactive: vemurafenib -0.007 | [1] 0.015 | barasertib 0.036 | [2] -0.016 | volasertib -0.041 | [3] 0.018 | [4] -0.029 | [5] -0.103 | saracatinib 0.021 | sotrastaurin -0.053

GPR108 (UniProt Q9NPR9)
inactive: vemurafenib 0.001 | [1] -0.059 | barasertib -0.03 | [2] 0.01 | volasertib 0.03 | [3] 0.031 | [4] 0.057 | [5] 0.01 | saracatinib 0.092 | sotrastaurin 0.019

GNPTG (UniProt Q9UJJ9)
inactive: vemurafenib 0.061 | [1] 0.035 | barasertib -0.052 | [2] 0.039 | volasertib 0.042 | [3] -0.006 | [4] 0.009 | [5] 0.015 | saracatinib 0.113 | sotrastaurin 0.049

GK (UniProt P32189)
inactive: vemurafenib 0.031 | [1] -0.002 | barasertib 0.031 | [2] 0.011 | volasertib 0.013 | [3] 0.062 | [4] -0.045 | [5] 0.005 | saracatinib 0.016 | sotrastaurin 0.013

GPN1 isoform 5 (UniProt Q9HCN4)
inactive: vemurafenib -0.023 | [1] 0.03 | barasertib -0.024 | [2] 0.035 | volasertib -0.024 | [3] -0.023 | [4] -0.028 | [5] 0.05 | saracatinib -0.035 | sotrastaurin -0.04

GORASP2 isoform 3 (UniProt Q9H8Y8)
inactive: vemurafenib 0.023 | [1] 0.025 | barasertib 0.076 | [2] 0.021 | volasertib -0.03 | [3] 0.01 | [4] -0.198 | [5] 0.129 | saracatinib 0.031 | sotrastaurin -0.019

GPATCH1 (UniProt Q9BRR8)
inactive: vemurafenib 0.01 | [1] -0.033 | barasertib 0.056 | [2] -0.076 | volasertib -0.037 | [3] 0.038 | [4] 0.293 | [5] -0.066 | saracatinib 0.075 | sotrastaurin -0.015

GIT2 (UniProt Q14161)
inactive: vemurafenib 0.047 | [1] 0.048 | barasertib 0.043 | [2] -0.267 | volasertib -0.012 | [3] 0.053 | [4] -0.042 | [5] -0.009 | saracatinib -0.032 | sotrastaurin 0.042

GLS isoform 3 (UniProt O94925)
inactive: vemurafenib 0.019 | [1] 0.073 | barasertib 0.065 | [2] -0.051 | volasertib -0.049 | [3] -0.01 | [4] -0.05 | [5] -0.031 | saracatinib 0.018 | sotrastaurin 0.039

GLCCI1 (UniProt Q86VQ1)
inactive: vemurafenib -0.03 | [1] 0.071 | barasertib -0.018 | [2] -0.04 | volasertib 0.008 | [3] -0.067 | [4] -0.039 | [5] -0.042 | saracatinib -0.065 | sotrastaurin 0.022

2 entries picked at random from the list so far, as already listed:
GLCCI1 (UniProt Q86VQ1)
inactive: vemurafenib -0.03 | [1] 0.071 | barasertib -0.018 | [2] -0.04 | volasertib 0.008 | [3] -0.067 | [4] -0.039 | [5] -0.042 | saracatinib -0.065 | sotrastaurin 0.022

GORASP2 isoform 3 (UniProt Q9H8Y8)
inactive: vemurafenib 0.023 | [1] 0.025 | barasertib 0.076 | [2] 0.021 | volasertib -0.03 | [3] 0.01 | [4] -0.198 | [5] 0.129 | saracatinib 0.031 | sotrastaurin -0.019

Following part.

GNPDA1 (UniProt P46926)
inactive: vemurafenib -0.002 | [1] 0.02 | barasertib -0.035 | [2] -0.03 | volasertib 0.016 | [3] 0.015 | [4] -0.061 | [5] 0.063 | saracatinib -0.003 | sotrastaurin -0.002

GOSR1 (UniProt O95249)
inactive: vemurafenib 0.045 | [1] -0.02 | barasertib -0.004 | [2] -0.088 | volasertib 0.019 | [3] 0.022 | [4] 0.003 | [5] -0.073 | saracatinib 0.008 | sotrastaurin -0.034

GHDC (UniProt Q8N2G8)
inactive: vemurafenib 0.083 | [1] 0.043 | barasertib 0.035 | [2] 0.006 | volasertib -0.051 | [3] -0.04 | [4] -0.007 | [5] -0.109 | saracatinib 0.012 | sotrastaurin 0.029

GPD2 (UniProt P43304)
inactive: vemurafenib 0.028 | [1] -0.002 | barasertib -0.001 | [2] 0.002 | volasertib 0.024 | [3] 0.03 | [4] 0.003 | [5] -0.001 | saracatinib 0.012 | sotrastaurin 0.005

GMPR (UniProt P36959)
inactive: vemurafenib -0.013 | [1] -0.013 | barasertib 0.034 | [2] -0.005 | volasertib 0.033 | [3] -0.054 | [4] 0.088 | [5] -0.02 | saracatinib 0.003 | sotrastaurin -0.019

GON7 (UniProt Q9BXV9)
inactive: vemurafenib 0.097 | [1] -0.115 | barasertib 0.196 | [2] -0.056 | volasertib 0.064 | [3] 0.024 | [4] -0.029 | [5] -0.052 | saracatinib 0.002 | sotrastaurin -0.062

GID4 (UniProt Q8IVV7)
inactive: vemurafenib 0.019 | [1] -0.031 | barasertib -0.044 | [2] 0.078 | volasertib 0.051 | [3] 0.021 | [4] -0.112 | [5] 0.011 | saracatinib -0.144 | sotrastaurin -0.059

GGNBP2 (UniProt Q9H3C7)
inactive: vemurafenib 0.045 | [1] 0.015 | barasertib -0.008 | [2] 0.019 | volasertib -0.024 | [3] 0.041 | [4] -0.1 | [5] 0.08 | saracatinib 0.03 | sotrastaurin 0.017

GPAT4 (UniProt Q86UL3)
inactive: vemurafenib -0.033 | [1] 0.019 | barasertib -0.016 | [2] 0.057 | volasertib 0.033 | [3] 0.005 | [4] -0.094 | [5] 0.038 | saracatinib -0.005 | sotrastaurin 0.011

GLOD4 isoform 2 (UniProt Q9HC38)
inactive: vemurafenib 0.023 | [1] -0.009 | barasertib 0.012 | [2] -0.043 | volasertib -0.001 | [3] -0.007 | [4] 0.026 | [5] -0.017 | saracatinib -0.003 | sotrastaurin -0.003

GNL2 (UniProt Q13823)
inactive: vemurafenib -0.017 | [1] 0.027 | barasertib 0.042 | [2] 0.005 | volasertib 0.011 | [3] 0.003 | [4] -0.048 | [5] -0.005 | saracatinib 0.008 | sotrastaurin -0.016

GLUL (UniProt P15104)
inactive: vemurafenib -0.055 | [1] 0.012 | barasertib -0.026 | [2] -0.028 | volasertib -0.024 | [3] 0.021 | [4] 0.326 | [5] -0.058 | saracatinib -0.004 | sotrastaurin 0.016

GPS1 isoform 6 (UniProt Q13098)
inactive: vemurafenib 0.019 | [1] -0.014 | barasertib -0.024 | [2] -0.009 | volasertib -0.017 | [3] -0.001 | [4] -0.043 | [5] 0.05 | saracatinib 0.014 | sotrastaurin 0.015

GPI (UniProt P06744)
inactive: vemurafenib -0.009 | [1] -0.022 | barasertib -0.043 | [2] -0.02 | volasertib 0.009 | [3] 0.024 | [4] -0.001 | [5] 0.037 | saracatinib -0.007 | sotrastaurin 0.013

GIPC1 (UniProt O14908)
inactive: vemurafenib 0.066 | [1] 0.014 | barasertib -0.051 | [2] -0.005 | volasertib -0.032 | [3] -0.025 | [4] -0.059 | [5] 0.052 | saracatinib 0.011 | sotrastaurin 0.035

GNG5 (UniProt P63218)
inactive: vemurafenib 0.019 | [1] -0.014 | barasertib 0.195 | [2] -0.072 | volasertib 0.046 | [3] 0.062 | [4] 0.08 | [5] -0.097 | saracatinib 0.041 | sotrastaurin -0.067
